PubChem BioAssay AID1259415 (National Center for Advancing Translational Sciences (NCATS), 2018)
Hit rate of the full screen: of about 410,000 compounds, about 18,000 (4.4%) were called active. The inconclusive results got no clear call from the source; some entries with a clear call stand among them for comparison. No stated cut-off is given here; in the data, active means activity change below about -60%; inconclusive means no clear call, values can overlap the other calls; inactive means above about -39%.
On the % scale 0 is the no-effect control and ±100 the full control effect.

Assay: qHTS Assay for inhibitors of the human cytomegalovirus (HCMV)
Conditions: HFF cells, HCMV-luciferase reporter, 72 h; at 57.5 µM; stronger effect = lower value
Method in brief: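 After 16 h attachment at 37C, HFF cells received test compound and HCMV-luciferase (1 PFU/cell); reporter luminescence read 72 h later, data normalized against buffer-only and known inhibitor Salinomycin.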
For `ClCCN(CCCl)c1ccc(C=Cc2ccncn2)cc1`, the activity change, negative = inhibition was inconclusive: -50%.
For `Cc1ccc(-c2nn(-c3ccc(F)cc3)cc2C(=O)NCC(c2cccs2)N2CCOCC2)cc1` (centres undefined), the activity change, negative = inhibition was inconclusive: -40.2%.
In the case of `CC(=O)Nc1ccc(C(=O)N/N=C/c2ccncc2)cc1`, the activity change, negative = inhibition was inconclusive: -40.9%.
In the case of `CN(C)c1cccc(Nc2nccc3c2cc(-c2cccc(F)c2)n3C)c1`, the activity change, negative = inhibition was inconclusive: -43.1%.
With `Cc1cccc(NC(=O)CN2C(=O)C(c3ccccc3)=NC23CCC(C)CC3)c1` (centres undefined) the activity change, negative = inhibition was active: -61.1%.
For `COc1cc(OC)cc(C(=O)Nc2cc3c(cc2N2CCOCC2)n(C)c(=O)n3C)c1`, the activity change, negative = inhibition was inactive: 6.54%.
With `CN1C(=O)C(=Cc2ccccc2OCc2ccc(Cl)cc2)C(=O)N(C)C1=O` the activity change, negative = inhibition was inconclusive: -40.1%.
With `OC[C@@H]1CN(Cc2ccc3c(c2)OCO3)C[C@H](n2cnc3c(NCc4ccc(F)cc4)ncnc32)O1` the activity change, negative = inhibition was inconclusive: -47.3%.
For `Cc1cc(C)c(C(=O)N(CCN(C)C)CC2CCCN(Cc3ccccc3F)C2)o1` (centres undefined), the activity change, negative = inhibition was inactive: -15.1%.
In the case of `CC(C)(C)C(=O)NC(c1ccccc1)c1c(O)ccc2ccccc12` (centres undefined), the activity change, negative = inhibition was inconclusive: -58.3%.
For `CC(=O)NN1C(=O)c2ccc3c4c(ccc(c24)C1=O)C(=O)N(NC(C)=O)C3=O`, the activity change, negative = inhibition was active: -104%.
In the case of `Cc1ccc(C(=O)NCc2nnc(SCC(=O)NC(C)c3ccccc3)n2C)cc1` (centres undefined), the activity change, negative = inhibition was inconclusive: -42.3%.
With `COc1ccccc1NC(=O)CCN1C(=O)c2ccccc2C1=O` the activity change, negative = inhibition was inactive: 6.91%.
For `Cc1ccc(C(=O)c2cc3ccccc3o2)cc1[N+](=O)[O-]`, the activity change, negative = inhibition was inconclusive: -48%.
For `CCCCn1c(N)c(N(CCC(C)C)C(=O)CN2C(=O)C3CCCCC3C2=O)c(=O)[nH]c1=O` (centres undefined), the activity change, negative = inhibition was inactive: 8.22%.
With `Cn1cc(CN(CCCN2CCOCC2)C(=S)Nc2cccc(Cl)c2)c2ccccc21` the activity change, negative = inhibition was active: -77.9%.
For `O=C(NCc1ccccn1)C(=O)NCC1OCCN1S(=O)(=O)c1ccc(Cl)cc1` (centres undefined), the activity change, negative = inhibition was inconclusive: -47.7%.
For `CC(C)CC(NC(=O)c1cccc(Cl)c1)C(=O)O` (centres undefined), the activity change, negative = inhibition was inconclusive: -42.3%.
In the case of `O=[N+]([O-])c1ccc(SNc2ccccc2)c([N+](=O)[O-])c1`, the activity change, negative = inhibition was inconclusive: -49.8%.
For `O=S(=O)(NCc1ccncc1)c1ccc(F)c(F)c1`, the activity change, negative = inhibition was inconclusive: -51.1%.
In the case of `CCCC1=Nc2cc(C(=O)NCc3ccco3)ccc2Sc2ccccc21`, the activity change, negative = inhibition was active: -69.1%.
In the case of `COc1ccc(/C(C)=N\NC(=O)CNC(=O)C(c2ccccc2)c2ccccc2)cc1OC`, the activity change, negative = inhibition was inactive: -20.1%.
With `Fc1cc(F)cc(NC(=S)N2CCN(c3ncccn3)CC2)c1` the activity change, negative = inhibition was inconclusive: -40.5%.
In the case of `CC(=O)C1=C(c2ccccc2)N(C(C)=O)n2c(nnc2C2CCCCC2)S1`, the activity change, negative = inhibition was active: -95.3%.
